Experimental data taken from patent US20070166787A1 (YEDA RESEARCH AND DEVELOPMENT, published 2007).
These are yes or no findings as the source states them, for the method shown. For part of these data: In cells and extracts the contact can be indirect. Some results given as binding are weak or reduced against the parent protein; the word gives no strength. For part of these data: Sequences can lack the tags named with a protein.

Amino acid sequences for entries named in this document (tags omitted).
UniProt Q13158: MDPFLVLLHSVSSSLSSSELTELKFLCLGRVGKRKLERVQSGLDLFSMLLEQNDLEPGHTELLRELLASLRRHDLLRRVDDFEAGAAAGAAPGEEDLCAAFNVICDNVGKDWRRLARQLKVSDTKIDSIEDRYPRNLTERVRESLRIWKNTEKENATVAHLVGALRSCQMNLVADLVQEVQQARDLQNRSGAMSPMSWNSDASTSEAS

Experiments:
[1] = biological target: T1, DD of TRADD (amino acids 195-312) fused at its N-terminus with the FLAG octapeptide or the HA epitope, expressed in HeLa cells (human) (UniProt Q15628); test: co-immunoprecipitation from lysates of transfected, 35S-labelled HeLa cells
T1 sequence (chain, by the resolver, Metabolically labelled with 35S-Met and 35S-Cys): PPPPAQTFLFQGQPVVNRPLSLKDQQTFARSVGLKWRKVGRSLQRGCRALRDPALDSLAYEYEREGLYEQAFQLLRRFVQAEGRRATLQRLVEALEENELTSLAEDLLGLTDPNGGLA

[2] = biological target: MORT-1 (bait of a two-hybrid screen) (UniProt Q13158); test: yeast two-hybrid library screen with MORT-1 as bait (not shown)
[3] = biological target: full-length MORT-1 fused at its N-terminus with the FLAG octapeptide, expressed in HeLa cells (human) (UniProt Q13158); test: co-immunoprecipitation with anti-FLAG (M2) or anti-HA (12CA5), SDS-PAGE, autoradiography

“full-length MORT-1 fused at its N-terminus with the FLAG octapeptide, expressed in HeLa cells (from UniProt Q13158 1-208)” was tested, and the binding [1] was “binds”.

B1: TRADD (encoded by cDNAs cloned in a two-hybrid screen with MORT-1) (protein, UniProt Q15628 1-312, looked up)
chain: MAAGQNGHEEWVGSAYLFVESSLDKVVLSDAYAHPQQKVAVYRALQAALAESGGSPDVLQMLKIHRSDPQLIVQLRFCGRQPCGRFLRAYREGALRAALQRSLAAALAQHSVPLQLELRAGAERLDALLADEERCLSCILAQQPDRLRDEELAELEDALRNLKCGSGARGGDGEVASAPLQPPVPSLSEVKPPPPPPPAQTFLFQGQPVVNRPLSLKDQQTFARSVGLKWRKVGRSLQRGCRALRDPALDSLAYEYEREGLYEQAFQLLRRFVQAEGRRATLQRLVEALEENELTSLAEDLLGLTDPNGGLA
With B1 the binding [2] was “binds”.

B2: DD of TRADD (amino acids 195-312) fused at its N-terminus with the FLAG octapeptide or the HA epitope, expressed in HeLa cells (protein, not shown: small tags and cut ends)
chain: PPPPAQTFLFQGQPVVNRPLSLKDQQTFARSVGLKWRKVGRSLQRGCRALRDPALDSLAYEYEREGLYEQAFQLLRRFVQAEGRRATLQRLVEALEENELTSLAEDLLGLTDPNGGLA
modifications: Metabolically labelled with 35S-Met and 35S-Cys
For B2, the binding [3] was “binds”.
